# Percent effect of library compounds

The chains behind the UniProt entries cited, without tags or fusion partners.
UniProt P9WPC5, whole entry: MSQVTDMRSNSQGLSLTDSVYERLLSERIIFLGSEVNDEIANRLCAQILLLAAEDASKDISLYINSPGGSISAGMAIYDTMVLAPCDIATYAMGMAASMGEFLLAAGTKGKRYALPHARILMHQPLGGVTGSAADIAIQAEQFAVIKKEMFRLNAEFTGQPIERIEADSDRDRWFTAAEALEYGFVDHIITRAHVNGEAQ
UniProt P9WPC3, whole entry partner: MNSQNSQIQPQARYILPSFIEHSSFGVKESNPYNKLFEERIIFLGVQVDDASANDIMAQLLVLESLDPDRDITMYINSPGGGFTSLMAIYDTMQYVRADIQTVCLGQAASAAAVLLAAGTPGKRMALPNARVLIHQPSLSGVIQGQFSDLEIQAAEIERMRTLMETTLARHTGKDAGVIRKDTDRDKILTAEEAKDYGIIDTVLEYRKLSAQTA
UniProt P9WFT3, whole entry: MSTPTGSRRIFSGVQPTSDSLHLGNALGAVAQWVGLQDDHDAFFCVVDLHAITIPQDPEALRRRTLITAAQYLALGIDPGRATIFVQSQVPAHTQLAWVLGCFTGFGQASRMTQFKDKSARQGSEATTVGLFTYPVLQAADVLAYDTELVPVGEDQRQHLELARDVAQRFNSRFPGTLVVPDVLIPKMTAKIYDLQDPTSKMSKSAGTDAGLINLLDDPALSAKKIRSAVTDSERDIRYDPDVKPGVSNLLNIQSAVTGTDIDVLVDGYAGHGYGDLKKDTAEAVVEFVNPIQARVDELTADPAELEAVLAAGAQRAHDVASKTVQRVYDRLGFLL

ClpP1P2: 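Protease assay of ClpP1P2, read by the AMC dye that it sets free. Target: ClpP1P2, Mycobacterium tuberculosis (UniProt P9WPC5 and UniProt P9WPC3). Concentration: 50 µM. Higher reads as stronger inhibition, judged from the few compounds that gave an IC50. Most other retested compounds had strongly negative values. Size under these conditions: about 69,000 compounds, about 10 of them at 50% or above in at least one test.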
MtTrpRS: 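Enzyme assay of tryptophanyl-tRNA synthetase; the read-out is not stated. Target: Tryptophan-tRNA ligase, Mycobacterium tuberculosis (UniProt P9WFT3). Tested at 10 µM. Direction is not recorded; retested compounds ran higher, which suggests that high means inhibition. Of about 65,000 compounds tested this way, about 64 (0.098%) reached 50% or more in at least one test.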

Each number is a percent effect as filed. The record does not define 0% and 100%; most values in the screen are far below 50% and negative numbers occur (in some assays of this library far below -100). Compounds were drawn at random from those tested, without regard to their results. A dash means the value is not listed here; it may have been measured.

| # | SMILES | ClpP1P2 | MtTrpRS |
|---|---|---|---|
| 1 | `Nc1cc(N2CCCC2c2cnccn2)ncn1` (stereo not given) | 10.34% | -2.09% |
| 2 | `Fc1cccc(-c2nccnc2C2CCCNC2)c1` (stereo not given) | 1.295% | -3.608% |
| 3 | `CCOC(=O)CSc1ccc(-c2nc(CC)no2)cn1` | -7.288% | 0.3943% |
| 4 | `Cc1[nH]c2ccc(CNC(=O)c3ccc(CN4CCCC4)o3)cc2c1C` | -14.24% | 0% |
| 5 | `COCCOC1CCN(C(C(=O)O)c2c(Cl)cccc2OC)CC1` (stereo not given) | -4.746% | -10.34% |
| 6 | `O=C(c1cccs1)N1CCC2(C1)c1ccccc1S(=O)(=O)N2CC1CC1` (stereo not given) | -2.101% | 4.229% |
| 7 | `O=C(O)[C@@H]1CN(C(=O)CC2CCCC2)C[C@H]1c1ccc(F)cc1` | 5.275% | -0.722% |
| 8 | `Cc1ccc2c(CC(=O)N3C[C@@H](O)[C@H](N(C)C)C3)coc2c1` | -19.3% | -0.4342% |
| 9 | `Cc1ccc(Cn2nc(C)c3c(C(=O)O)c(Cl)c(C4CC4)nc32)cc1` | -9.446% | 1.774% |
| 10 | `COC(=O)c1ccc(CN2CCC(c3n[nH]c(C)n3)CC2)s1` | -2.848% | 5.806% |
| 11 | `CN(Cc1nnc(C2CC2)n1C)S(=O)(=O)c1ccc(F)c(C#N)c1` | -18.05% | -1.704% |
| 12 | `CN(Cc1ccncc1)C(=O)NCc1nnc2n1CCCCC2` | -9.362% | 14.43% |
| 13 | `Cc1cc(C(=O)N(C)Cc2cccs2)nc(N2CCCCC2)n1` | -0.02925% | 3.886% |
| 14 | `O=C(NC1CC1)c1cc(C2CCCN(Cc3ccccn3)C2)no1` (stereo not given) | -3.159% | -0.6275% |
| 15 | `CCOCCN1CCN(CCc2nc3ccccc3c(=O)[nH]2)CC1` | 2.662% | -0.3112% |
| 16 | `CN(C)S(=O)(=O)N1CCC(c2ccncn2)CC1` | 1.604% | -6.588% |
| 17 | `CNC(=O)CNC(=O)Nc1ccc(F)c(Br)c1` | -7.427% | -0.55% |
| 18 | `COc1ccc(CN2CCO[C@H]3CN(C(C)=O)CC[C@H]3C2=O)cc1` | -10.28% | 8.364% |
| 19 | `O=C(Cc1cccs1)NCC1(O)CCSC1` (stereo not given) | 6.6% | -2.401% |
| 20 | `Cn1ccnc1C(=O)N1CCOC(Cc2ccc(Cl)cc2)C1` (stereo not given) | 9.396% | 2.957% |
| 21 | `CCn1cc(CNC(=O)CC(C)C)cn1` | -8.017% | 1.492% |
| 22 | `Cc1ccc(C(=O)N(C)Cc2ccc3c(c2)OCO3)c(=O)[nH]1` | -19.74% | 3.202% |
| 23 | `CCn1cnnc1CNC(=O)NC(C)c1cccs1` (stereo not given) | 0.9006% | -0.5596% |
| 24 | `COc1ccc(NC(=O)c2nc3ccccc3n(C)c2=O)cc1OC` | 12.25% | 2.348% |
| 25 | `CN(C)C(=O)C1CCCN1CCCNC(=O)c1cccc2[nH]ncc12` (stereo not given) | -1.785% | -0.136% |
| 26 | `CC1(c2ccccc2)CCC(=O)N(CCN2CCOCC2)C1` (stereo not given) | -4.632% | 0.000007% |
| 27 | `COc1c(C2CCCN2C(=O)c2cc(C)on2)c(C)nn1C` (stereo not given) | -13.22% | -0.3895% |
| 28 | `COc1ccc(-c2nc(C3CCNCC3)cc3c2ncn3C)cc1` | 13.82% | -7.114% |
| 29 | `COCCN1CCc2ncnc(OC(C)C)c2CC1` | 3.351% | - |
| 30 | `CC(NC(=O)NCCCO)c1ccc2c(c1)NC(=O)CO2` (stereo not given) | -26.69% | -7.45% |
| 31 | `O=C(c1ccc(O)cc1)N1C[C@@H]2OCCN(c3ncccn3)[C@@H]2C1` | -28.92% | -3.103% |
| 32 | `Cn1ccc(C(=O)Nc2nc(-c3ccc4c(c3)CCO4)cs2)cc1=O` | -0.8741% | -4.528% |
| 33 | `CC(C)c1nnc2n1CCN(C(=O)c1ccc(CN(C)C)cc1)C2` | -2.565% | -2.737% |
| 34 | `Cn1ccnc1CN(CCO)C(=O)C1CCN(C(=O)C2CC2)CC1` | -13.78% | -2.603% |
| 35 | `CCCN1CCCC2(CCN(S(=O)(=O)c3cc(C)nn3CC)C2)C1=O` (stereo not given) | -8.755% | 1.348% |
| 36 | `CC(C)(C)OC(=O)NCCNC(=O)c1ccc2cc[nH]c2c1` | -7.482% | 0.1971% |
| 37 | `Cc1cnc(-c2nc(NC3CC3)ncc2-c2cc(C)no2)cn1` | 19.55% | 42.04% |
| 38 | `Cn1c(SCc2noc(-c3ccsc3)n2)nnc1C1CCS(=O)(=O)C1` (stereo not given) | 11.78% | -2.812% |
| 39 | `COc1cc(C)c(CNC(C)c2csc(C)n2)cc1OC` (stereo not given) | -2.982% | 0.6721% |
| 40 | `CC[C@@H](CO)NC(=O)c1coc(COc2ccc3sc(C)nc3c2)n1` | -3.763% | -2.101% |
| 41 | `COc1cccc2c1ccn2CC(=O)N[C@@H](CCSC)C(=O)O` | 7.195% | 0.201% |
| 42 | `Cc1ccc(CN2C[C@H]3CN(Cc4ccccc4Cl)CCN3C2=O)cc1` | -13.16% | 0.3765% |
| 43 | `Cc1ccc(C(=O)N2C[C@@H]3OCCN(CC4CCCC4)[C@@H]3C2)cn1` | -1.501% | -4.378% |
| 44 | `CCC(CC)c1cc(CNC(=O)N2CCOC(C)C2)on1` (stereo not given) | -15% | -4.694% |
| 45 | `CC(C)c1cccc(-n2cc(O)c(C(N)=O)n2)c1` | -8.218% | 4.198% |
| 46 | `CNS(=O)(=O)Cc1ccc(CNc2cncc(-n3cccn3)n2)cc1` | -206.4% | 0.7194% |
| 47 | `Cc1nc(C2CCCN2Cc2ccc(S(=O)(=O)N(C)C)o2)no1` (stereo not given) | -30.72% | 0.07337% |
| 48 | `CCCc1nc(NCCc2ccccc2)c2c(n1)c(C)nn2CC` | 9.739% | -0.08333% |
| 49 | `CCOC1COC2(CCN(Cc3cccnc3OC)CC2)C1` (stereo not given) | 14.88% | - |
| 50 | `COCCCN1CC2(CCCCN2C(=O)COC)CC1=O` (stereo not given) | -5.278% | -2.481% |
| 51 | `Cc1nn2c(NCC(N)=O)cc(-c3ccccc3)nc2c1C` | 8.246% | 45.17% |
| 52 | `COCCN1C[C@@H]2CN(C(=O)[C@H]3CCCO3)C[C@@H]2C1=O` | 7.543% | -0.07633% |
| 53 | `Cc1ccc(Cl)c(CN2CCC3(CC2)C(C(=O)O)CC(=O)N3C)c1F` (stereo not given) | -9.842% | -3.466% |
| 54 | `CC(C)Nc1ncnc2c1CCN(C(=O)Cc1cccs1)CC2` | 2.901% | 2.215% |
| 55 | `O=C(O)c1cn(-c2ccccn2)c(=O)c2ccccc12` | -105.8% | -5.432% |
| 56 | `Cc1cnn(CCC(=O)N2CCCN(c3ncccc3C#N)CC2)c1` | -1.97% | -3.411% |

For reference, 3 entries once more:

SMILES,ClpP1P2,MtTrpRS
O=C(NC1CC1)c1cc(C2CCCN(Cc3ccccn3)C2)no1 (stereo not given),-3.159%,-0.6275%
Cn1ccnc1C(=O)N1CCOC(Cc2ccc(Cl)cc2)C1 (stereo not given),9.396%,2.957%
CCn1cc(CNC(=O)CC(C)C)cn1,-8.017%,1.492%

Measurements from “University of Dundee, Small-Polar-MMV Screening Library” (2021), ChEMBL document CHEMBL3988442.